Consider ten sequences from publication PMC10630337, “Transcriptional reprogramming by mutated IRF4 in lymphoma”.

Where a chain is given by its changes, count along the chain named. For some assays here: Weaker means in comparison with the reference protein, sequence or condition of that experiment. For some assays here: Where cells or extracts were used, other partners may take part. For some assays here: No signal at the amounts used counts as a negative. For some assays here: Protein sequences can lack the tags named with them. For some assays here: Construct, isoform or probe ends are uncertain for at least one entry. For some assays here: At least one verdict rests on a figure or table, not on a statement of the authors.

Assay in all cases: EMSA
(Mobility shift assays separate free from complexed probe on a gel.)

One series concerns IRF4-C99R + JUNB + BATF. The conditions noted are these: EMSA: 10 mM HEPES pH 7.9, 70 mM KCl, 5 mM DTT, 1 mM EDTA, 2.5 mM MgCl2, 4% Ficoll, 0.5 mg/ml BSA, 0.1 ug/ml poly(dI-dC), 3-5 ug nuclear extract, temperature not stated, protein in a lysate after overexpression, protein details: HA,FLAG, label: 32P-dCTP Klenow end label.
Another series has as its system IRF4-WT + JUNB + BATF. As to conditions: EMSA: 10 mM HEPES pH 7.9, 70 mM KCl, 5 mM DTT, 1 mM EDTA, 2.5 mM MgCl2, 4% Ficoll, 0.5 mg/ml BSA, 0.1 ug/ml poly(dI-dC), 3-5 ug nuclear extract, temperature not stated, protein in a lysate after overexpression, protein details: HA,FLAG, label: 32P-dCTP Klenow end label.
The next series relates to IRF4-C99R + c-JUN + BATF. As to conditions: EMSA: 10 mM HEPES pH 7.9, 70 mM KCl, 5 mM DTT, 1 mM EDTA, 2.5 mM MgCl2, 4% Ficoll, 0.5 mg/ml BSA, 0.1 ug/ml poly(dI-dC); 3-5 ug nuclear extract; temperature not stated; protein in a lysate after overexpression; protein details: HA,FLAG; label: 32P-dCTP Klenow end label.
In a further series the test system is IRF4-WT + c-JUN + BATF. The conditions noted are these: EMSA: 10 mM HEPES pH 7.9, 70 mM KCl, 5 mM DTT, 1 mM EDTA, 2.5 mM MgCl2, 4% Ficoll, 0.5 mg/ml BSA, 0.1 ug/ml poly(dI-dC); 3-5 ug nuclear extract; temperature not stated; protein in a lysate after overexpression; protein details: HA,FLAG; label: 32P-dCTP Klenow end label.
In series [1] the test system is IRF4-C99R S104T + JUNB + BATF. As to conditions: EMSA: 10 mM HEPES pH 7.9, 70 mM KCl, 5 mM DTT, 1 mM EDTA, 2.5 mM MgCl2, 4% Ficoll, 0.5 mg/ml BSA, 0.1 ug/ml poly(dI-dC), temperature not stated, protein in a lysate after overexpression, protein details: HA,FLAG, label: 32P-dCTP Klenow end label.
A further series has as its system IRF4-C99R + JUNB + BATF3. The conditions noted are these: EMSA: 10 mM HEPES pH 7.9, 70 mM KCl, 5 mM DTT, 1 mM EDTA, 2.5 mM MgCl2, 4% Ficoll, 0.5 mg/ml BSA, 0.1 ug/ml poly(dI-dC); 3-5 ug nuclear extract; temperature not stated; protein in a lysate after overexpression; protein details: HA,FLAG; label: 32P-dCTP Klenow end label.
The next series relates to IRF4-WT + JUNB + BATF3. As to conditions: EMSA: 10 mM HEPES pH 7.9, 70 mM KCl, 5 mM DTT, 1 mM EDTA, 2.5 mM MgCl2, 4% Ficoll, 0.5 mg/ml BSA, 0.1 ug/ml poly(dI-dC); 3-5 ug nuclear extract; temperature not stated; protein in a lysate after overexpression; protein details: HA,FLAG; label: 32P-dCTP Klenow end label.
The subject of series [2] is IRF4-WT DBD + JUNB DBD + BATF DBD. The conditions noted are these: C99R much stronger, short or long probe not certain; EMSA: 10 mM HEPES pH 7.9, 70 mM KCl, 5 mM DTT, 1 mM EDTA, 2.5 mM MgCl2, 4% Ficoll, 0.5 mg/ml BSA, 0.1 ug/ml poly(dI-dC); 3-5 ug nuclear extract; temperature not stated; recombinant protein; label: 32P-dCTP Klenow end label.
The target of another series is T1, IRF4-C99R (human) (UniProt Q15306).
T1 sequence (looked up): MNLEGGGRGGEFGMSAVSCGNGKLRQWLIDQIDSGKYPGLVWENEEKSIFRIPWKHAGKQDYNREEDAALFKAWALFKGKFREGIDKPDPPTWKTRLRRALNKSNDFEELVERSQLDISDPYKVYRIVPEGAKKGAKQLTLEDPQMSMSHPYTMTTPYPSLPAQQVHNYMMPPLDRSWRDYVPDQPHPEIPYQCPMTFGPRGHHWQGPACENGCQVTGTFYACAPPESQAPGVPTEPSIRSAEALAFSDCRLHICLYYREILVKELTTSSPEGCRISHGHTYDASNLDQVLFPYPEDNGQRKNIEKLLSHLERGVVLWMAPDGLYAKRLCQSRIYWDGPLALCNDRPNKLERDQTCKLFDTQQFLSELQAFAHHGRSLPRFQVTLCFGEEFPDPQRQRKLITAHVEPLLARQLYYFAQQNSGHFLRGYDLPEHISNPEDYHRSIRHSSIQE
The conditions noted are these: EMSA: 10 mM HEPES pH 7.9, 70 mM KCl, 5 mM DTT, 1 mM EDTA, 2.5 mM MgCl2, 4% Ficoll, 0.5 mg/ml BSA, 0.1 ug/ml poly(dI-dC); 3-5 ug nuclear extract; temperature not stated; protein in a lysate after overexpression; residues 1-451; protein details: HA; label: 32P-dCTP Klenow end label.

The next series concerns the target T2, IRF4-C99R S104T (human) (UniProt Q15306).
T2 sequence (looked up): T1 sequence (looked up) with S104T
As to conditions: EMSA: 10 mM HEPES pH 7.9, 70 mM KCl, 5 mM DTT, 1 mM EDTA, 2.5 mM MgCl2, 4% Ficoll, 0.5 mg/ml BSA, 0.1 ug/ml poly(dI-dC); 3-5 ug nuclear extract; temperature not stated; protein in a lysate after overexpression; residues 1-451; protein details: HA; label: 32P-dCTP Klenow end label.

The next series has as its target T3, IRF4-WT (human) (UniProt Q15306).
T3 sequence (looked up): T1 sequence (looked up) with R99C
The conditions noted are these: EMSA: 10 mM HEPES pH 7.9, 70 mM KCl, 5 mM DTT, 1 mM EDTA, 2.5 mM MgCl2, 4% Ficoll, 0.5 mg/ml BSA, 0.1 ug/ml poly(dI-dC); 3-5 ug nuclear extract; temperature not stated; protein in a lysate after overexpression; residues 1-451; protein details: HA; label: 32P-dCTP Klenow end label.

“AGCTTAGTGCATTTCTGAGTCAGAGATCAAAGAAG / AGCTCTTCTTTGATCTCTGACTCAGAAATGCACTA [AICE2FLIP (AICE2 5'TTTC)]”: the binding result with IRF4-C99R + JUNB + BATF is recorded as “binds”; in the series with IRF4-WT + JUNB + BATF, “no binding”.

With “AGCTTAGCGCAGAAATGAGTCAGAGATCAAAGAAG / AGCTCTTCTTTGATCTCTGACTCATTTCTGCGCTA [AICE2-4C (Bcl11b)]”, the binding result with IRF4-C99R + JUNB + BATF (strong) is “binds”; in the series with IRF4-C99R + c-JUN + BATF it was “binds”; in the series on IRF4-WT + JUNB + BATF it was “no binding”; in the series with IRF4-WT + c-JUN + BATF it was “no binding”.

Regarding “AGCTGCTTTTGCTTTCACTTTGACTGGCCTGGAGACAATGAGTT / AGCTAACTCATTGTCTCCAGGCCAGTCAAAGTGAAAGCAAAAGC [AICE1 (IL12Rb)]”, the binding result in the series with IRF4-C99R + JUNB + BATF (complete loss of IRF4 complex) is “no binding”; with IRF4-C99R + c-JUN + BATF, “no binding”; in [1] (3-5 ug nuclear extract), “no binding”; with IRF4-WT + JUNB + BATF (weak-affinity motif), “binds”.

Consider “AGCTACTGAATGAGTCAGAGAGGCCCAAA / AGCTTTTGGGCCTCTCTGACTCATTCAGT [GATA3Peak_1]”, for which the binding result is reported as “binds” in the series with IRF4-C99R + JUNB + BATF3, “binds” in the series with IRF4-C99R + JUNB + BATF, “no binding” in the series with IRF4-WT + JUNB + BATF3 and “no binding” with IRF4-WT + JUNB + BATF.

“AGCTTAGTGCAGAAATGAGTCAGAGATCAAAGAAG / AGCTCTTCTTTGATCTCTGACTCATTTCTGCACTA [AICE2 (Bcl11b)]”: the binding result is “binds” with IRF4-C99R + JUNB + BATF (enhanced vs WT); “binds” in the series with IRF4-C99R + c-JUN + BATF; “binds” in [1] (similar to C99R, 3-5 ug nuclear …); “binds” in the series on IRF4-WT + JUNB + BATF; “binds” with IRF4-WT + c-JUN + BATF; “binds more weakly” in [2].

As to “AGCTAGTCATAAATGAGTCATGGC / AGCTGCCATGACTCATTTATGACT [GATA3Peak_2]”, the binding result is given as “binds” with IRF4-C99R + JUNB + BATF3, “binds” in the series on IRF4-C99R + JUNB + BATF, “no binding” with IRF4-WT + JUNB + BATF3 and “no binding” in the series with IRF4-WT + JUNB + BATF.

With “AGCTAATGCAGGAATGACTCACTTG / AGCTCAAGTGAGTCATTCCTGCATT [GATA3Peak_3]”, the binding result in the series with IRF4-C99R + JUNB + BATF is listed as “binds”; in the series with IRF4-WT + JUNB + BATF, “no binding”.

Take “AGCTGGGAAAGGGAAACCGAAACTG / AGCTCAGTTTCGGTTTCCCTTTCCC [ISRE (ISG15)]”: the binding result with IRF4-C99R (human) is listed as “no binding”; in the series with IRF4-C99R S104T (human), “no binding”; in the series with IRF4-WT (human), “binds”.

For the sequence “AGTGCATACATGAGTCAGAGATC / AGGATCTCTGACTCATGTATGCA [AICE2 (Bcl11b) short, IRF motif tAcA]”, in the series with IRF4-C99R + JUNB + BATF (complete loss of IRF4 composite complex), the binding result is recorded as “no binding”.

As for “AGCTCTTGCCTTAGAGGTTTCGGGATGACTAATACTGTA / AGCTTACAGTATTAGTCATCCCGAAACCTCTAAGGCAAG [AICE1 (Ctla4)]”, the binding result with IRF4-C99R + JUNB + BATF (complete loss of IRF4 complex) is given as “no binding”; in the series on IRF4-C99R + c-JUN + BATF, “no binding”; in series [1] (3-5 ug nuclear extract) it was “no binding”; in the series with IRF4-WT + JUNB + BATF, “binds”; with IRF4-WT + c-JUN + BATF it was “binds”.
